In test [1] the target is calcium/calmodulin‐dependent protein kinase kinase 2 (CaMKK2) (human (endogenous in A549)) (UniProt Q96RR4). The test can be described thus: co-IP; endogenous proteins from A549 lysates (lysis buffer A: 20 mM HEPES pH 7.5, 150 mM NaCl, 1 mM EDTA, 2 mM EGTA, 1% Triton X-100, 10% glycerol); 1 µg antibody against TIPRL, CaMKK2 or PP2Ac, or normal IgG, protein G sepharose, overnight at 4 °C; for CaMKK2 with PP2Ac the cells were transfected with siTIPRL or control siRNA, or overexpressed TIPRL.

Chains of the proteins cited; added tags and fusions are not shown. Lines headed by an entry give the natural chain unless they say otherwise; changes in a name come on top.
UniProt Q96RR4: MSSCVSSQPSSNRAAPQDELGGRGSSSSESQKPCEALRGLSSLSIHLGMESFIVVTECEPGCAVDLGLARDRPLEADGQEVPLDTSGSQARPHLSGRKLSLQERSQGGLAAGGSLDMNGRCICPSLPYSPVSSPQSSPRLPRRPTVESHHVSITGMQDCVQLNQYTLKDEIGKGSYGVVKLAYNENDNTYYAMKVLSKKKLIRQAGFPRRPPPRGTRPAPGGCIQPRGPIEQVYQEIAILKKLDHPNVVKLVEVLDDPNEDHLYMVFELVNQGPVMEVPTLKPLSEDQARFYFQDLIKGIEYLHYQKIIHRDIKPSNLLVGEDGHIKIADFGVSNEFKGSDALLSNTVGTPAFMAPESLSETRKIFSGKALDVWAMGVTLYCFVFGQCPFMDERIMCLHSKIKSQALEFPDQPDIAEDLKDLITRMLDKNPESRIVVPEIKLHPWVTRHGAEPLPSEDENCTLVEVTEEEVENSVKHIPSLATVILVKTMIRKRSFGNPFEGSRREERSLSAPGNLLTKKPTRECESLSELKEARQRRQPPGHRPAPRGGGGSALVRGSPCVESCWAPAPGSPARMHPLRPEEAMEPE
UniProt P67775: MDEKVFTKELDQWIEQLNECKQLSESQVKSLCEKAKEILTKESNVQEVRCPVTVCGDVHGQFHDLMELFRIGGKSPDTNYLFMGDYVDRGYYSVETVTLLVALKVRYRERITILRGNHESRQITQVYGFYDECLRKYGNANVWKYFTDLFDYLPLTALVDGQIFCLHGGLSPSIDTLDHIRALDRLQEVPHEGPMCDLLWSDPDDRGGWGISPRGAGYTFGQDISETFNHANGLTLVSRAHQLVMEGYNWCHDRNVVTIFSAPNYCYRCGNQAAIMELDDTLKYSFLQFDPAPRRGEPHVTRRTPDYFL

Test [2] addresses T1, His‐tagged TIPRL (pTIPRL‐His) in HEK293 cells (UniProt O75663).
T1 sequence: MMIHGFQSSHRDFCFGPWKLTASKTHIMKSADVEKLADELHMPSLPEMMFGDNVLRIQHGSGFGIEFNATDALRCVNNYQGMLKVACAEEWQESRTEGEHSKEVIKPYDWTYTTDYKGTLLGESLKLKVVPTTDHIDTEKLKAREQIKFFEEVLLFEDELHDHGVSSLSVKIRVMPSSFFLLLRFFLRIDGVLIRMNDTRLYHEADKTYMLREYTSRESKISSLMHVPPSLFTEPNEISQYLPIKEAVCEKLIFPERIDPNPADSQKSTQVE
The test can be described thus: co-IP; HEK293 cells co-transfected with pTIPRL-His and pHA-CaMKK2 or deletion mutants; precipitated using TIPRL.

Results are given in words; binding and its absence hold for the method and conditions named. In cells and extracts the contact can be indirect. A result given as binding can be weak or reduced; the word gives no strength. For some assays here: Tags and fused reporters may be left off the sequences shown.

For the substance “catalytic subunit of protein phosphatase 2A (PP2Ac) (from UniProt P67775) (enzyme)”, the binding result in test [1] is “binds”.

As for “hemagglutinin‐tagged CaMKK2 C‐terminal region (447–540) (domain or fragment)”, in test [2], the binding result was “binds”.

Source of the values: PMC11423089.
